Results reported in the supplement of paper PMC7666118.
The list shows a part of the results.

Protein sequences, listed by entry. Tags and fused reporters are not part of them. Lines headed by an entry give the natural chain unless they say otherwise; changes in a name come on top.
UniProt O00462: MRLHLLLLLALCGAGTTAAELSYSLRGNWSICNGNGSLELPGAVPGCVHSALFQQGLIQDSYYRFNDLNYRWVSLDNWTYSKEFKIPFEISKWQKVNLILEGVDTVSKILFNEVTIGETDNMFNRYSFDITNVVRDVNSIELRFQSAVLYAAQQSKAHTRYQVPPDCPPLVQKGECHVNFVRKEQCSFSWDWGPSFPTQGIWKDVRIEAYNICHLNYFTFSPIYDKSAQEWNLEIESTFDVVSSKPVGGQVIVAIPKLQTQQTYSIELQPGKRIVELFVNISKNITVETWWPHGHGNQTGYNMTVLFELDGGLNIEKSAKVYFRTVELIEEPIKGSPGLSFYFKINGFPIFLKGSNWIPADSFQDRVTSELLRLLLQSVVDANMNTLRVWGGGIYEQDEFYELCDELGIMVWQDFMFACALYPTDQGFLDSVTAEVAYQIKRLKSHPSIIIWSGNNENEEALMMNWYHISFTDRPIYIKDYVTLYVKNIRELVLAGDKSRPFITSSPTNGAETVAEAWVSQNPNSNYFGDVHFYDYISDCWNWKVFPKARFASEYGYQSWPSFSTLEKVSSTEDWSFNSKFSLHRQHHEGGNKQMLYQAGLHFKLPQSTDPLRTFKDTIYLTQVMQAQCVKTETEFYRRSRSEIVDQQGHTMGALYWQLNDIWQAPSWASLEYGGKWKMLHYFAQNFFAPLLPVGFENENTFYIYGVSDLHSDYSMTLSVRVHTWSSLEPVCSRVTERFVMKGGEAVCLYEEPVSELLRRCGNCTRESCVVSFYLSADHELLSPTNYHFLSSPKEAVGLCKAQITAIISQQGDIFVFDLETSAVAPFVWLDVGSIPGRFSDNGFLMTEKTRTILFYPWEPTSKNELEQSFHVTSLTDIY
UniProt Q9UHC7: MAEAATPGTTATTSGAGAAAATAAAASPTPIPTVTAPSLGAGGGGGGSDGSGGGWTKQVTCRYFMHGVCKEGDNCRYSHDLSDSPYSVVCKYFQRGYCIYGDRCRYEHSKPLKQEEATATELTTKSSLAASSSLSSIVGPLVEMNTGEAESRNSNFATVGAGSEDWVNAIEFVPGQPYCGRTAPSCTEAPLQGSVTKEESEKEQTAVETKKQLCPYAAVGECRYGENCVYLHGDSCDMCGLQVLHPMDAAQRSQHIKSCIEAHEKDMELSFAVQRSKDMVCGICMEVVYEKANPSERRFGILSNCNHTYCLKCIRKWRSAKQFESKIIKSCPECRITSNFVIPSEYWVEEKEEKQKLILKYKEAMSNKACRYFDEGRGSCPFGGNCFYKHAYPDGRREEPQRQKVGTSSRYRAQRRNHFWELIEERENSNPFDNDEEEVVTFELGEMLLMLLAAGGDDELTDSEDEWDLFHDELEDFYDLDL
UniProt Q969V6: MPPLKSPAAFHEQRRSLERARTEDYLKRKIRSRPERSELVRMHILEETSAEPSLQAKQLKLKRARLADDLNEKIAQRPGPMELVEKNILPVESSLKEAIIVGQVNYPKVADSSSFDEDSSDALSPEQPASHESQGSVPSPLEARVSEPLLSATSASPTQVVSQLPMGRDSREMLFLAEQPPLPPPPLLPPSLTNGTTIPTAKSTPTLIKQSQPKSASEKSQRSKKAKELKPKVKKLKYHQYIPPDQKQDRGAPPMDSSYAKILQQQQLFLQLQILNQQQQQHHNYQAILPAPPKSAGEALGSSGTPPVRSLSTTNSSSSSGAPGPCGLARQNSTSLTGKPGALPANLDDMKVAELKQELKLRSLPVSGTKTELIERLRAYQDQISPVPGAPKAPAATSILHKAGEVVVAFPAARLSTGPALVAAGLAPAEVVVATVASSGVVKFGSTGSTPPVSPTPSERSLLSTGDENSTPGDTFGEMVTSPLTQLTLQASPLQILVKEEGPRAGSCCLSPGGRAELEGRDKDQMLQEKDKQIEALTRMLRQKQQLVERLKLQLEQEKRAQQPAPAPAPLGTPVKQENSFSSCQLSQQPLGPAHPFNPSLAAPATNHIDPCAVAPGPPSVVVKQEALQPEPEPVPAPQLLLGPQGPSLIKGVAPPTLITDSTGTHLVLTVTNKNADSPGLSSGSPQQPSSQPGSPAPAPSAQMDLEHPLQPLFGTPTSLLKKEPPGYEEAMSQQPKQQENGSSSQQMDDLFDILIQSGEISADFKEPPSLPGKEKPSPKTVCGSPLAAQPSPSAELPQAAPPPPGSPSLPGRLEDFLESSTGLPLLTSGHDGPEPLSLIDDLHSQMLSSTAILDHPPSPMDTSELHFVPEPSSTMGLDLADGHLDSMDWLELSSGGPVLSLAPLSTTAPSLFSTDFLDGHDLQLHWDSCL
UniProt Q5JPI9: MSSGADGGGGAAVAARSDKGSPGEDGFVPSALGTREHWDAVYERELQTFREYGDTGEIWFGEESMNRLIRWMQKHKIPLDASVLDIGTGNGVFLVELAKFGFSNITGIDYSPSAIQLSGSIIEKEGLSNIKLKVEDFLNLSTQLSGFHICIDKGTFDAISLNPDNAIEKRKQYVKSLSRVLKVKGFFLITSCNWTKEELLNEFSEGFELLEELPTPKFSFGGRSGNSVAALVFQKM
UniProt Q71SY5: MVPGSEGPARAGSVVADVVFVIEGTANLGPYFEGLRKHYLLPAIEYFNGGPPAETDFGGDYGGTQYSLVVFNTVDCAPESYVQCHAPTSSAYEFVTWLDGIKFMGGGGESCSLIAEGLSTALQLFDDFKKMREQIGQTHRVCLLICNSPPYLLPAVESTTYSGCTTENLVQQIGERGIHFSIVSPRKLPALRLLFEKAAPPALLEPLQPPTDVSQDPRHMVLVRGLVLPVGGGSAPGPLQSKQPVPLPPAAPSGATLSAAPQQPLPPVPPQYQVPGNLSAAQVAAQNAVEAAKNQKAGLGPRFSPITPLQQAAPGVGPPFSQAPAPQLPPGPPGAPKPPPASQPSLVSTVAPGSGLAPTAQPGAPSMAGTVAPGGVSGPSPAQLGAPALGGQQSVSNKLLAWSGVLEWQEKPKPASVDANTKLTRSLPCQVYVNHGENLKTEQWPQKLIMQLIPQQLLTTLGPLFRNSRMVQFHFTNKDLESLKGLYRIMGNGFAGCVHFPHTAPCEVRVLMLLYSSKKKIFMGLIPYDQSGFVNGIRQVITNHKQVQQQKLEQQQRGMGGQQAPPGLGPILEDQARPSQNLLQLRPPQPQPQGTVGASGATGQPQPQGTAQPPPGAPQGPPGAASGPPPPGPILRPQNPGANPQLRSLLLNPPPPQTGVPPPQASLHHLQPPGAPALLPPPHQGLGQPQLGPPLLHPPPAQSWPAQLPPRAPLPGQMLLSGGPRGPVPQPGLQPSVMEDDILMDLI
UniProt O96028: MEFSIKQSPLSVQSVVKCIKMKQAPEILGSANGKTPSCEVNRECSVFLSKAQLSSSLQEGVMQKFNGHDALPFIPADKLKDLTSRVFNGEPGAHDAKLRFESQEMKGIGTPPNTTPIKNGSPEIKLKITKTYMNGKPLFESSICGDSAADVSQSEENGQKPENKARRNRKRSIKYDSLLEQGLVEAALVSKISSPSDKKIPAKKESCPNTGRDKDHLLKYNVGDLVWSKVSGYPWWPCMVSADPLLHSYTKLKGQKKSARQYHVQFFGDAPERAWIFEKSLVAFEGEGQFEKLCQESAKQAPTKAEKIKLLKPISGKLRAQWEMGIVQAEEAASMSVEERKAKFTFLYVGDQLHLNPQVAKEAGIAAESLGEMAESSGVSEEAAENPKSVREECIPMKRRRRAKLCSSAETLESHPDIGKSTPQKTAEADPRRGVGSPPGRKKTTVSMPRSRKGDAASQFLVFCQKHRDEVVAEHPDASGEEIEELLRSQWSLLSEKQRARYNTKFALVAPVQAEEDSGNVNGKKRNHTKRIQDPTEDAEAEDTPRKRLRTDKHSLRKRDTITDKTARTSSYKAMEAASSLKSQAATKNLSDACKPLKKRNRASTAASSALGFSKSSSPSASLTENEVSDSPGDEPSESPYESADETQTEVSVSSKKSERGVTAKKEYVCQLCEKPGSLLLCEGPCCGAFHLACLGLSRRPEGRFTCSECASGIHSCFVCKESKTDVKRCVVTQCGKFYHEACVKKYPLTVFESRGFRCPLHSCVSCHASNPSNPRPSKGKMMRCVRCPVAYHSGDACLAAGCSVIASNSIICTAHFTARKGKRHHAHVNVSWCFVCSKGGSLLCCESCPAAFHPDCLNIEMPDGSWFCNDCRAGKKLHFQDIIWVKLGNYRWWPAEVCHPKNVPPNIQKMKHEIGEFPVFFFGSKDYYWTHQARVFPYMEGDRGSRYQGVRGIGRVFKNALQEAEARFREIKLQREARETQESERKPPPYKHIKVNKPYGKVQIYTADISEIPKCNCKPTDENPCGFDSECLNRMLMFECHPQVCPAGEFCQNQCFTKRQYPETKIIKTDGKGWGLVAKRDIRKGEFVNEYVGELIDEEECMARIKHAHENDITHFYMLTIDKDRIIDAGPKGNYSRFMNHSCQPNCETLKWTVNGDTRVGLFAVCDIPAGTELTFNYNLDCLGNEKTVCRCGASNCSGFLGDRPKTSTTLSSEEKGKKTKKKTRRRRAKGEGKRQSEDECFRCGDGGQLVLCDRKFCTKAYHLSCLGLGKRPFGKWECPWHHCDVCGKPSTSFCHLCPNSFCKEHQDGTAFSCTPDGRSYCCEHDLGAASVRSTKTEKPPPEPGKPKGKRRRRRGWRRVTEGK
UniProt Q9H825: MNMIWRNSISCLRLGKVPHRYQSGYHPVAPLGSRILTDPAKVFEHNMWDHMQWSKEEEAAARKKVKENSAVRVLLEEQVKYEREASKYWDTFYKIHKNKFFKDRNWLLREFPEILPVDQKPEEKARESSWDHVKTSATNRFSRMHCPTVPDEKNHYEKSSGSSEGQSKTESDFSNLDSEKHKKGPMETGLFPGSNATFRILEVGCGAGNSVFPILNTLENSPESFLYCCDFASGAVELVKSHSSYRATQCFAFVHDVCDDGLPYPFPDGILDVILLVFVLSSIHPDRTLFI
UniProt O00255, whole entry: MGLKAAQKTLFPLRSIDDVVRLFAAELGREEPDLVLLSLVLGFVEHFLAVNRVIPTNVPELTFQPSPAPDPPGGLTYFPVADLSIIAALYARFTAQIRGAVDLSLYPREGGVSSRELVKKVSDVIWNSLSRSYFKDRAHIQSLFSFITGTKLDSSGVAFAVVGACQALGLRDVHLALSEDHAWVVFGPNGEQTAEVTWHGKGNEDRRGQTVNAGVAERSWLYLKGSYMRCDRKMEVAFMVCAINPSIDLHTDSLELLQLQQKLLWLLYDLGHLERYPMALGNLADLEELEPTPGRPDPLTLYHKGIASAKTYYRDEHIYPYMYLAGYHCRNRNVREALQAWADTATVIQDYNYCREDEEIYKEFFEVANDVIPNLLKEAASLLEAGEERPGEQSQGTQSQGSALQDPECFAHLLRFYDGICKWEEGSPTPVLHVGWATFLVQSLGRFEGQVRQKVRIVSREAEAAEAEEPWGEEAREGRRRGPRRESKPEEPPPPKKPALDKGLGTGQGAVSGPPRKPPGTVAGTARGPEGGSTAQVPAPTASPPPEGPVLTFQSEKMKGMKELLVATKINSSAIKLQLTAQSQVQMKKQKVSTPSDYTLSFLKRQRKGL

Compound: COc1ccc(Cn2ccc3ccc(C(=O)NO)cc32)cc1
Experiment: dose-dependent thermal stabilisation call (2D-TPP, DLPTP, 10% FDR) (binary (1 = stabilised)); higher = stabilised by the compound
Settings: system: HL-60 intact cells; concentration range 0.04-10 µM

Target | dose-dependent thermal stabilisation call
MRPS28 (UniProt Q9Y2Q9) | inactive: 0
MANBA (UniProt O00462) | inactive: 0
MKRN1 (UniProt Q9UHC7) | inactive: 0
MRPL49 (UniProt Q13405) | inactive: 0
MKL1 (UniProt Q969V6) | inactive: 0
METTL10 (UniProt Q5JPI9) | inactive: 0
MDP-1 | inactive: 0
MED25 (UniProt Q71SY5) | inactive: 0
MMSET (UniProt O96028) | inactive: 0
METTL8 (UniProt Q9H825) | inactive: 0
MEN1 (UniProt O00255) | inactive: 0

At a glance, part of the list above:
Target | dose-dependent thermal stabilisation call
MDP-1 | inactive: 0
MED25 (UniProt Q71SY5) | inactive: 0
